# Primary screen of a compound library

Data taken from ChEMBL document CHEMBL3988442, “University of Dundee, Small-Polar-MMV Screening Library” (2021).

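Viability assay of Plasmodium falciparum sporozoites; the read-out is not stated. The concentration is filed as 10 mM, unlikely as a test dose, so the dose is not known. The record gives no direction; compounds that gave an IC50 in retests scored well above the rest, so higher reads as lower viability. Strong results were mostly tested again. Size under these conditions: about 34,000 compounds, about 280 of them at 50% or above in at least one test.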

Values are the deposited “Percent Effect”, in %. The controls that fix the scale are not given in the record; negative values are as filed. Compounds were drawn at random from those tested, without regard to their results. Two or more numbers in one place are separate tests of the same structure; such repeats can differ widely.

SMILES	effect
COc1ncccc1CNC(=O)c1cnccn1	2.507%
Cc1nc(CNCC2Cn3nncc3CO2)cs1.O=C(O)C(F)(F)F (configuration not stated)	12.26%
CC(NC(=O)NCCCN1CCCCCC1=O)c1nncn1C (configuration not stated)	17.67% & 18.07% & 8.355%
OCC(O)CSCc1cn(-c2ccc(F)c(Cl)c2)nn1 (configuration not stated)	-7.898%
O=C(c1cncs1)N1CCOCC(Cc2ccncn2)C1 (configuration not stated)	-2.655%
COc1ccccc1C(=O)NC(C)CC(=O)O (configuration not stated)	-14.8%
CS(=O)(=O)NCc1cc2n(n1)CCCN(Cc1cccc(C#N)c1)C2	3.846%
CCc1cnc(CNc2ccc(C(=O)N3CCCC(C)C3)cc2C)o1 (configuration not stated)	-11.12% & -12.61% & -11.81%
COc1ccc2c(c1OC)Cc1c-2nc(N)c(C#N)c1C1CCOC1 (configuration not stated)	0.5372%
Cc1cc2c(=O)n3c(nc2s1)CCN(Cc1cncn1C)CC3.Cl	-10.93%
CCn1cc(CN(C)C(=O)c2cccc(CCC(C)(C)O)c2)cn1	2.79%
CC(C)c1nccn1-c1cccc(C2CCCN(S(=O)(=O)N(C)C)C2)n1 (configuration not stated)	17.24%
CCOC(=O)NC(C(=O)NCc1ccc(N2CCCCC2)nc1)C(C)C (configuration not stated)	1.92%
Cn1ncc2c(=O)[nH]c(CN3CCc4ccccc4C3)nc21	8.611%
FC(F)(F)COCCN1CCOC(Cn2cccn2)C1 (configuration not stated)	6.797%
COCC(=O)N1CCCCC1c1ccnc(Nc2cnccn2)n1 (configuration not stated)	-4.112%
Cc1cc(C)nc(C2(C)CCCN2CCO)n1 (configuration not stated)	2.525%
[H][C@@]12C[C@H](C)O[C@@]1([H])CCN(C(=O)CCOC)C2	-5.421%
N#Cc1ccc(N2CCN(C(=O)c3cc(C4CC4)[nH]n3)CC2)c(F)c1	2.924%
O=C(NCc1cc(=O)n2c(n1)CN(CC1CC1)CCC2)c1ccsc1.O=C(O)C(F)(F)F	9.789%
Cc1nc2ccc(C(=O)N3C[C@@H](O)[C@H](N4CCN(C)CC4)C3)cc2[nH]1	7.459%
[H][C@@]12CCN(c3ccc(C)nn3)C[C@]1([H])[C@H](C(=O)NCCOC)CCO2	16.16%
O=C(NCCNc1cnccn1)N1CC=C(c2ccccc2)CC1	-7.828%
Cc1c(CN2CCOCC2)c(O)n(CCO)c(=O)c1C#N	13.49%
Cl.Cn1ccnc1N1CCN(C(=O)Cc2ccccc2)CC1	15.13%
Cc1nnc(CN(Cc2ccccc2Br)C2CC2)o1	-14.66% & -5.687%
CCN(CC)S(=O)(=O)c1ccc2c(c1)N(Cc1ccncc1)C(=O)CS2	-11.37%
Cc1ncsc1CN1CCOC(C)(C(N)=O)C1 (configuration not stated)	12.6%
Cc1cc(C(=O)NCC(C)N2CCc3ccccc32)on1 (configuration not stated)	5.537%
Cc1ccc(NC(=O)N2CCC3(CCC(C(=O)N(C)C)O3)CC2)cc1 (configuration not stated)	-12.49%
CCCN1CCc2nc(N3CCOCC3)nc(NC(C)C)c2C1	-1.302%
CCc1nnsc1C(=O)N1CCN(CC(O)C(C)(C)C)CC1 (configuration not stated)	-25.46%
CC[C@H](C)Nc1ncc(-c2cccc(NC(=O)CNC)c2)cn1	20.07%
CNc1snc(C)c1C(=O)N1CCCC(n2ccnc2C(C)C)C1 (configuration not stated)	-21.08%
O=C(C1CCOCC1)N1CCc2ncc(CN3CCCC3)n2CC1.O=C(O)C(F)(F)F	1.117%
Cc1nn(C)c(C)c1C1CCCN1CC(=O)NCc1ccccn1 (configuration not stated)	10.41%
CN1CCC(Cc2cc(Nc3ncccn3)ncn2)CC1	-16.94%
CN(C)C1CCN(C(=O)NCc2ccccc2Cn2cncn2)CC1	-2.706%
Cc1ccc(F)cc1CC(=O)N(CCN1CCOCC1)Cc1ccco1	-6.404%
N[C@@H]1c2ccccc2C2(CCN(C(=O)c3ccc(Cl)cn3)CC2)[C@H]1O	-15.44%
Cc1nn(C)cc1C(=O)N1CCCC(n2nnc3cc(F)ccc32)C1 (configuration not stated)	-4.187%
CCC(=O)N1CCC(c2ncc3c(n2)CCNC3)CC1	-6.757%
CCOC(=O)N1[C@@H](c2ccco2)[C@@H](CO)C[C@]12CCCCNC2=O	-35.42%
c1cc2c(cc1CN(Cc1nc(C3CC3)no1)C1CCCC1)OCO2	12.71% & 9.481% & -1.226%
CCOc1cc(=O)n2c(c1C(=O)OCc1ccc(C)cc1)CCCC2	-5.403%
O=C(COc1ccc2c(c1)CCC2)NS(=O)(=O)c1cccnc1	6.66%

Once more, the final 5:

| SMILES | effect |
|---|---|
| `CCC(=O)N1CCC(c2ncc3c(n2)CCNC3)CC1` | -6.757% |
| `CCOC(=O)N1[C@@H](c2ccco2)[C@@H](CO)C[C@]12CCCCNC2=O` | -35.42% |
| `c1cc2c(cc1CN(Cc1nc(C3CC3)no1)C1CCCC1)OCO2` | 12.71% & 9.481% & -1.226% |
| `CCOc1cc(=O)n2c(c1C(=O)OCc1ccc(C)cc1)CCCC2` | -5.403% |
| `O=C(COc1ccc2c(c1)CCC2)NS(=O)(=O)c1cccnc1` | 6.66% |